Some of the results follow. Small differences around the control level are noise.

Protein sequences, listed by entry. Tags and fused reporters are not part of them. Lines headed by an entry give the natural chain unless they say otherwise; changes in a name come on top.
UniProt Q8BHA0, whole entry: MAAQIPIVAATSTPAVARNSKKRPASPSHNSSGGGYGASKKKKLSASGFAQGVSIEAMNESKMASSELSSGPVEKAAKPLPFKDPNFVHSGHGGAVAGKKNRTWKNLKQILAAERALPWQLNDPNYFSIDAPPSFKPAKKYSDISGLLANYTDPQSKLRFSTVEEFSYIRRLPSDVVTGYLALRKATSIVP
UniProt Q80XN0: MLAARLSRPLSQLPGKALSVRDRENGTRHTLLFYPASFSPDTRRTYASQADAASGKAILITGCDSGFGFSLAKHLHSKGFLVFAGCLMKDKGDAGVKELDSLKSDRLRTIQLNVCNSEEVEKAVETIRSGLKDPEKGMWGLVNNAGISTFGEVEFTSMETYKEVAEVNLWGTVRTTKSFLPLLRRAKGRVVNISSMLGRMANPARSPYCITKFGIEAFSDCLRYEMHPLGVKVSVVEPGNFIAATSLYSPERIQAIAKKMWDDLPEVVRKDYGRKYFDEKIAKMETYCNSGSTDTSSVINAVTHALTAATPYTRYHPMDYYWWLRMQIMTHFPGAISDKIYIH
UniProt Q8BHJ9: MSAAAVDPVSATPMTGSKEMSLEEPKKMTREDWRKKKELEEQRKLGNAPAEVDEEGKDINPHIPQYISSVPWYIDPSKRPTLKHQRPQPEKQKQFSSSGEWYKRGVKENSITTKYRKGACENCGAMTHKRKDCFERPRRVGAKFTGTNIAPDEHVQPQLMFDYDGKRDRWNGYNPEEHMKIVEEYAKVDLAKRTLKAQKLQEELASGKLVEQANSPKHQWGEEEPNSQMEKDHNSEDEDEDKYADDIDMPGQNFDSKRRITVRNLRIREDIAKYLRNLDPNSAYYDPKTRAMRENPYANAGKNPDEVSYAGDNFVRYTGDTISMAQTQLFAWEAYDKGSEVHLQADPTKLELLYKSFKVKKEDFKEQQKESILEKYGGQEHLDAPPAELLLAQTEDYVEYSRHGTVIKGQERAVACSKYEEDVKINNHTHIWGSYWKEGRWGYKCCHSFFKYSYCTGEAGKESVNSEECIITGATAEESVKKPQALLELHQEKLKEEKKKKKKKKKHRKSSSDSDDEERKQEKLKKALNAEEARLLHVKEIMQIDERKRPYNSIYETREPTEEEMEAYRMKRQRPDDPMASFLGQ
UniProt Q80WJ7: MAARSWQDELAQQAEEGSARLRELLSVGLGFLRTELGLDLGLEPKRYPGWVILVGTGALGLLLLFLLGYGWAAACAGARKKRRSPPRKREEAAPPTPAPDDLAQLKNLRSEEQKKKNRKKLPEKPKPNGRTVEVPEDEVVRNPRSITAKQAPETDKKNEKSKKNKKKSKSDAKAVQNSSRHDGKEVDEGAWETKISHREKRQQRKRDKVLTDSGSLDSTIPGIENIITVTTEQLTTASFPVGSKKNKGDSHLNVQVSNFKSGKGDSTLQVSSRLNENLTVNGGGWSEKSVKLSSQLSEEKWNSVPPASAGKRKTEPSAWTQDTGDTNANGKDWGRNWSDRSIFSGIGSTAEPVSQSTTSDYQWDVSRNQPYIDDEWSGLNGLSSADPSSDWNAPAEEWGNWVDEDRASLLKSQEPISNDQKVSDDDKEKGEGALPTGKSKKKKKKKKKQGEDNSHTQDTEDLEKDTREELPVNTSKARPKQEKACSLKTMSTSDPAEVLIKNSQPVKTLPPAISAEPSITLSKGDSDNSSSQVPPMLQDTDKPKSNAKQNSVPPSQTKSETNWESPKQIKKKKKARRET
UniProt Q8BGS3: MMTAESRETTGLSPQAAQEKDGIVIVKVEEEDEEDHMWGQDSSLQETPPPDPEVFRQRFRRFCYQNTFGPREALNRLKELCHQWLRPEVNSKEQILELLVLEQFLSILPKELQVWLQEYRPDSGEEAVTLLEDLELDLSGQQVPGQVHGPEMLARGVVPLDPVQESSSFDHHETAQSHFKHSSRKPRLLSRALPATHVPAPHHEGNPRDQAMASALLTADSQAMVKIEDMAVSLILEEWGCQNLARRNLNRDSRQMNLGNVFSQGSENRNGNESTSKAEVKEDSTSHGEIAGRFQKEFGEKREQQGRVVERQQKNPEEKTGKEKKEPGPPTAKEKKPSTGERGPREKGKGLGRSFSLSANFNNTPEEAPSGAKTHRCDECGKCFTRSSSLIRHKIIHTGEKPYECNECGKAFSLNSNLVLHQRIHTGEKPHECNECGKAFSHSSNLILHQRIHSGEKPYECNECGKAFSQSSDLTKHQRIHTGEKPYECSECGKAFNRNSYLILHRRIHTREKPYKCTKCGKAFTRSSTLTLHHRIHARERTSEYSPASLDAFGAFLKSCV
UniProt Q80XK6: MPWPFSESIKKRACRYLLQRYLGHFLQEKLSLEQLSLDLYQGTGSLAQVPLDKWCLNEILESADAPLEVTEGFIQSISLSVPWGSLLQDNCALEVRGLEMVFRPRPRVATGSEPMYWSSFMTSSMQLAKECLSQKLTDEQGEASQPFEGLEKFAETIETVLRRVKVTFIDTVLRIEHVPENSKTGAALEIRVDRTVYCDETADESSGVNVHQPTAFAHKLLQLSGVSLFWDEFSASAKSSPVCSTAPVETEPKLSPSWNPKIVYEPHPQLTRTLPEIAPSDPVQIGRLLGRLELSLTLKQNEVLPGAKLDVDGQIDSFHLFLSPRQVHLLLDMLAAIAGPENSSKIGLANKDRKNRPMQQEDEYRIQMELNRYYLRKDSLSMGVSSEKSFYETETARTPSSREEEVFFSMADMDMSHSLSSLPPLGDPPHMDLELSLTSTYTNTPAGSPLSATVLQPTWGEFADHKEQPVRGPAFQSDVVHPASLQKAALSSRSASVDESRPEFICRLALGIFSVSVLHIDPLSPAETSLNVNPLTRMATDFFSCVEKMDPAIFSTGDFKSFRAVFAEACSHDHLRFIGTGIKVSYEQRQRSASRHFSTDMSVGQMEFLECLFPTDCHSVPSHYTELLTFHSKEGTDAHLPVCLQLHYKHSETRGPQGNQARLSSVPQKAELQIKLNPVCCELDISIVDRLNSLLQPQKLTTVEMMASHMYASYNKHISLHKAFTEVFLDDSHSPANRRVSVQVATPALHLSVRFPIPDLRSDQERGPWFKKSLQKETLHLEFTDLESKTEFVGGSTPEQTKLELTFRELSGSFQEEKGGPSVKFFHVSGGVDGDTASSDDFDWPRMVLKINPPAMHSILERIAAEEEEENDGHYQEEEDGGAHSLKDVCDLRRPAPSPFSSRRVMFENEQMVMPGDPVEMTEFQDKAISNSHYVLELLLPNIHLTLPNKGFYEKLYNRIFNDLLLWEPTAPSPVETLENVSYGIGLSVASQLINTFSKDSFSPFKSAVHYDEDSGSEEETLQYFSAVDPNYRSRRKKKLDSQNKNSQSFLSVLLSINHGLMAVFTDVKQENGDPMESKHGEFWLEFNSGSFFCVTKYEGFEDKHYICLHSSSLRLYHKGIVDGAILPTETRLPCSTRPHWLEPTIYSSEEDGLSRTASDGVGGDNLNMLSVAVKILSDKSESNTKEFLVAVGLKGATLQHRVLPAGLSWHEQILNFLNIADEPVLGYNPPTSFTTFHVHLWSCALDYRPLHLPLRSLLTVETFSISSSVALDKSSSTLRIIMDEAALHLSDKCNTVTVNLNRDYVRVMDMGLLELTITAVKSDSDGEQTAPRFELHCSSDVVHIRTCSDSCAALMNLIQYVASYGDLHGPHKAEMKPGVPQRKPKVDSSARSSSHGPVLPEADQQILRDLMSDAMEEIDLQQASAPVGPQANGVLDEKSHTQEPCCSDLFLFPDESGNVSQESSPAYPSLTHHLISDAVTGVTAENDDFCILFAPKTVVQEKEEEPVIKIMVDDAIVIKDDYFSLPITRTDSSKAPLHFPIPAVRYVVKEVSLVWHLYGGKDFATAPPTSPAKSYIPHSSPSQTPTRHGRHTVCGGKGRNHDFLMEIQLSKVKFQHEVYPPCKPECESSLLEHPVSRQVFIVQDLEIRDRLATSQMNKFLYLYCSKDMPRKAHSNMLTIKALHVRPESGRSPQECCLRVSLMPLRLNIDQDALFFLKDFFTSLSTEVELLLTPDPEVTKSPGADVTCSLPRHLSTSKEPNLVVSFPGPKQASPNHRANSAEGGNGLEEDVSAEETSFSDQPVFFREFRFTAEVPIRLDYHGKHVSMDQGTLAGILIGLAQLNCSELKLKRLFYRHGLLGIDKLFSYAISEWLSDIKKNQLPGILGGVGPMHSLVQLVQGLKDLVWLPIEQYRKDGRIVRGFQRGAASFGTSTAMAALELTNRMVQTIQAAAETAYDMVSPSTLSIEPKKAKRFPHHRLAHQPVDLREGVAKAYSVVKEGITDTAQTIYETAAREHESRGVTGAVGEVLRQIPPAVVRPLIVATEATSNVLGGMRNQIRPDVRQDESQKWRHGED
UniProt Q80W14: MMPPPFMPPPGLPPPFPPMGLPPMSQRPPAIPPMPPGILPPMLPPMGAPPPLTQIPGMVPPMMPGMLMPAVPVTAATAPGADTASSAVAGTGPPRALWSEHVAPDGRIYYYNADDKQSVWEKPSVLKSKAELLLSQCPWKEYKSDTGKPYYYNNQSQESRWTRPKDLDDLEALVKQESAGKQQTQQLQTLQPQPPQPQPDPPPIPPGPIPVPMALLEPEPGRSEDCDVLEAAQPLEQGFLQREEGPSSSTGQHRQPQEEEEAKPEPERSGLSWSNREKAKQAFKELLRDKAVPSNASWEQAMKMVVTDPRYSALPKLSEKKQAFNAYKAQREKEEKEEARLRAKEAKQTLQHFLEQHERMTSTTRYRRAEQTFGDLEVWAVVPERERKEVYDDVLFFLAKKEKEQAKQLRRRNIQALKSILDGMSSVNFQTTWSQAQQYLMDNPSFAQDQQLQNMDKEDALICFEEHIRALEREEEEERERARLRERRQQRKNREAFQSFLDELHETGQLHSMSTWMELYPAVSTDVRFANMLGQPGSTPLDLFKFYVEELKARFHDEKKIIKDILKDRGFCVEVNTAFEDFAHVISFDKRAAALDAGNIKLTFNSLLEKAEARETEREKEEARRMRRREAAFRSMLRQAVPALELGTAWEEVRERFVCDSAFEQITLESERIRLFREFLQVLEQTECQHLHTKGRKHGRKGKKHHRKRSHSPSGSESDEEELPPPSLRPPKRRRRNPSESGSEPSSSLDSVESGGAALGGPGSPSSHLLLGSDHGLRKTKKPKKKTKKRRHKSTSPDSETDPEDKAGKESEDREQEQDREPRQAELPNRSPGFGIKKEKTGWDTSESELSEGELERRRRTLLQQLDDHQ
UniProt Q80YW0: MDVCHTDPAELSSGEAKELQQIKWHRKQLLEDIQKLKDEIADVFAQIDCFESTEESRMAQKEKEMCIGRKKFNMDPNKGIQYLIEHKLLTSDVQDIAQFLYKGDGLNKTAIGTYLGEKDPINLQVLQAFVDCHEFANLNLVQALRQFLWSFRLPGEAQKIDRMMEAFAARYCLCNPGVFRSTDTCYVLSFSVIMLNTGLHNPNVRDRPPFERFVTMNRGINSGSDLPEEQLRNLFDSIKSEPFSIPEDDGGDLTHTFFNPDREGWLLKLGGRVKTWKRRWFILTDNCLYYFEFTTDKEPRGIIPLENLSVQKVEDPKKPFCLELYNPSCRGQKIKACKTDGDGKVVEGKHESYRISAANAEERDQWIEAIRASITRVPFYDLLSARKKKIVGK
UniProt Q8BG15: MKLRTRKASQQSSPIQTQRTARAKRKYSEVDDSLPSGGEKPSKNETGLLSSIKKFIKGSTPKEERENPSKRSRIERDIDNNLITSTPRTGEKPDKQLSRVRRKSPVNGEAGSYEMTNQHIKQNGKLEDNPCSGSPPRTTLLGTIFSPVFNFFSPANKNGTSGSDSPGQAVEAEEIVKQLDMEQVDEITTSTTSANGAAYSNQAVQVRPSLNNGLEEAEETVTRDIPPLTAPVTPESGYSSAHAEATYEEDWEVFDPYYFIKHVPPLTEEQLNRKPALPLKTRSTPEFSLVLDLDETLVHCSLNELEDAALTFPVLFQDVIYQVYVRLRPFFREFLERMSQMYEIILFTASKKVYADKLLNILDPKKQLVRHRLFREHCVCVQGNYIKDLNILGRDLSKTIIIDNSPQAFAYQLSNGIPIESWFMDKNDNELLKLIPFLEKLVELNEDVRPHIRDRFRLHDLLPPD
UniProt Q80VV3: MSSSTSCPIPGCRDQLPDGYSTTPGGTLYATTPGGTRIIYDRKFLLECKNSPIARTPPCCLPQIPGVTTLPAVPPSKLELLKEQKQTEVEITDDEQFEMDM
UniProt Q8BFY6: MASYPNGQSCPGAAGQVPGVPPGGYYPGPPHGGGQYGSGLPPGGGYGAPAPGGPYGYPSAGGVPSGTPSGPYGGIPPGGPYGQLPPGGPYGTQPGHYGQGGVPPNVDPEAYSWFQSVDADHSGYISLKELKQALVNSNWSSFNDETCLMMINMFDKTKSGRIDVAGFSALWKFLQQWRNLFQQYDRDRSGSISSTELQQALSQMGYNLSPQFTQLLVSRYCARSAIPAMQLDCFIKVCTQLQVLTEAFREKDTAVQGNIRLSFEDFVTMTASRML

Compound in the experiment: CN[C@@H]1C[C@H]2O[C@@](C)([C@@H]1OC)n1c3ccccc3c3c4c(c5c6ccccc6n2c5c31)C(=O)NC4 [staurosporine]
The experiment is described as follows: log2 fold change of tryptic peptide abundance, ligand vs vehicle (limited proteolysis) (log2 ratio); higher = more trypsin-susceptible (destabilized). The conditions noted are these: ligand concentration: 20 uM; sample: mouse liver crude lysate; replicate design: treated separately.
Regarding “UniProt Q8BHK9 (peptide sequence: LITCGTVEEK, peptide start residue: 587)”, the log2 fold change amounted to 0.175.

Turning to “UniProt Q8BGF6 (peptide sequence: KKPYDSANAQHEK, peptide start residue: 117)”, the log2 fold change was -0.306.

Turning to “UniProt Q80XC6 (peptide sequence: SQLSLSWLR, peptide start residue: 739)”, the log2 fold change is 0.37.

Regarding “UniProt Q80YV4 (peptide sequence: LKVDKEDVMTCLIK, peptide start residue: 140)”, the log2 fold change turned out to be 0.33.

Take “UniProt Q80X89 (peptide sequence: IHHDQPVKPLDR, peptide start residue: 448)”: the log2 fold change was -0.437.

On to “UniProt Q8BHA0 (peptide sequence: MASSELSSGPVEK, peptide start residue: 63)”, for which the log2 fold change stood at 0.0158.

In the case of “UniProt Q80X50 (peptide sequence: RYPSSISSSPQKDLTQAK, peptide start residue: 621)”, the log2 fold change was found to be 1.16.

With “UniProt Q80XP8 (peptide sequence: LLCWLCTLSYKR, peptide start residue: 123)”, the log2 fold change was -0.17.

As for “UniProt Q80XN0 (peptide sequence: KMWDDLPEVVRK, peptide start residue: 259)”, the log2 fold change came out at 0.2.

Turning to “UniProt Q8BG26 (peptide sequence: VIATVDEDWLR, peptide start residue: 864)”, the log2 fold change was determined as 0.427.

For “UniProt Q8BHJ9 (peptide sequence: GVKENSITTK, peptide start residue: 105)”, the log2 fold change is -0.898.

“UniProt Q8BH04 (peptide sequence: IFHVNWFR, peptide start residue: 511)”: the log2 fold change is 0.0974.

Consider “UniProt Q80X90 (peptide sequence: YGGPNHISR, peptide start residue: 2456)”, for which the log2 fold change is 0.627.

Consider “UniProt Q80WJ7 (peptide sequence: KTEPSAWTQDTGDTNANGKDWGR, peptide start residue: 313)”, for which the log2 fold change is -0.282.

For the target “UniProt Q8BGI5 (peptide sequence: KSDASTSAAPLK, peptide start residue: 2)”, the log2 fold change was -0.712.

For the target “UniProt Q80X82 (peptide sequence: RQEHDISLDRIPR, peptide start residue: 206)”, the log2 fold change amounted to 0.245.

For “UniProt Q8BGR9 (peptide sequence: GLIDVKPLGVIWGK, peptide start residue: 225)”, the log2 fold change was determined as 0.296.

With “UniProt Q8BGS3 (peptide sequence: SSTLTLHHR, peptide start residue: 527)”, the log2 fold change was -0.604.

Consider “UniProt Q80XK6 (peptide sequence: IQMELNR, peptide start residue: 366)”, for which the log2 fold change is -0.251.

Consider “UniProt Q80W14 (peptide sequence: DLDDLEALVK, peptide start residue: 166)”, for which the log2 fold change was 0.295.

Consider “UniProt Q8BH74 (peptide sequence: TVVENICK, peptide start residue: 639)”, for which the log2 fold change was -0.198.

“UniProt Q80Y86 (peptide sequence: LCDFGLAR, peptide start residue: 154)”: the log2 fold change was -0.179.

For “UniProt Q8BGI4 (peptide sequence: KLHDFEDNFFR, peptide start residue: 638)”, the log2 fold change amounted to 0.787.

Consider “UniProt Q80YW0 (peptide sequence: DRPPFER, peptide start residue: 206)”, for which the log2 fold change was -0.175.

With “UniProt Q8BG15 (peptide sequence: DIDNNLITSTPR, peptide start residue: 77)”, the log2 fold change was determined as 0.188.

On to “UniProt Q80VV3 (peptide sequence: KFLLECK, peptide start residue: 43)”, for which the log2 fold change stood at 0.364.

As for “UniProt Q80XI3 (peptide sequence: VADEGESLR, peptide start residue: 446)”, the log2 fold change was -0.184.

Consider “UniProt Q80W00 (peptide sequence: SHEGPGHGGPHGHRPHDVPSHR, peptide start residue: 797)”, for which the log2 fold change was 0.589.

For “UniProt Q8BFY6 (peptide sequence: NLFQQYDR, peptide start residue: 179)”, the log2 fold change was 0.0776.

“UniProt Q8BH60 (peptide sequence: HIAVLQAEVYGAR, peptide start residue: 193)”: the log2 fold change is -0.195.

Regarding “UniProt Q8BH47 (peptide sequence: EFITTYNMMK, peptide start residue: 93)”, the log2 fold change stood at 0.145.

(Values after the supplement of paper PMC12819154, “High-throughput peptide-centric local stability assay extends protein–ligand identification to membrane proteins, tissues and bacteria” (Nature Structural & Molecular Biology, 2025).)
